Measurements reported in the supplement of paper PMC4604168 (melanoma cell lines).
Some of the results follow. Many values rest on one well or one pass, so single values are uncertain.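 Cells were imaged in 1,536-well plates, and nuclei stained with an antibody against cleaved PARP were counted against all DNA-stained nuclei to give the apoptosis fraction. Screening doses were chosen to leave most cells alive, and resting and induced cleaved-PARP levels differ strongly between cell lines.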

Experiments:
Test in all cases: cleaved PARP positive nuclei fraction relative to DMSO control; melanoma cells; higher = more apoptosis
Settings in all cases: library dose: low library concentration; 72 h
MZ2-MEL = tested on: MZ2-MEL
MeWo = tested on: MeWo
RPMI7951 = tested on: RPMI7951
RVH-421 = tested on: RVH-421
SkMel28 = tested on: SkMel28
SkMel2 = tested on: SkMel2
SkMel30 = tested on: SkMel30
UACC62 = tested on: UACC62
WM115 = tested on: WM115
WM1716 = tested on: WM1716
WM1745 = tested on: WM1745
WM3526 = tested on: WM3526
WM3619 = tested on: WM3619
WM451Lu = tested on: WM451Lu

SMILES	cleaved PARP positive nuclei fraction (MZ2-MEL) [%]	cleaved PARP positive nuclei fraction (MeWo) [%]	cleaved PARP positive nuclei fraction (RPMI7951) [%]	cleaved PARP positive nuclei fraction (RVH-421) [%]	cleaved PARP positive nuclei fraction (SkMel28) [%]	cleaved PARP positive nuclei fraction (SkMel2) [%]	cleaved PARP positive nuclei fraction (SkMel30) [%]	cleaved PARP positive nuclei fraction (UACC62) [%]	cleaved PARP positive nuclei fraction (WM115) [%]	cleaved PARP positive nuclei fraction (WM1716) [%]	cleaved PARP positive nuclei fraction (WM1745) [%]	cleaved PARP positive nuclei fraction (WM3526) [%]	cleaved PARP positive nuclei fraction (WM3619) [%]	cleaved PARP positive nuclei fraction (WM451Lu) [%]
Nc1ncn([C@H]2C[C@H](O)[C@@H](CO)O2)c(=O)n1 [decitabine] + C=CCNC1=C2C[C@@H](C)C[C@H](OC)[C@H](O)[C@@H](C)/C=C(\C)[C@H](OC(N)=O)[C@@H](OC)/C=C\C=C(/C)C(=O)NC(=CC1=O)C2=O [Tanespimycin] (first compound 0.1 µM, partner dose 0.002 µM)	154	577	121	182	89.2	69.5	106	88.4	27.4	937	104	48.5	88.5	322
C=C(c1ccc(C(=O)O)cc1)c1cc2c(cc1C)C(C)(C)CCC2(C)C [Bexarotene] + COCC[n+]1c2c(n(Cc3cnccn3)c1C)C(=O)c1ccccc1C2=O [YM155] (first compound 2 µM, partner dose 0.0004 µM)	220	51.3	188	177	287	108	114	52.7	38.9	123	278	188	83.8	45.6
CS(=O)(=O)CCNCc1ccc(-c2ccc3ncnc(Nc4ccc(OCc5cccc(F)c5)c(Cl)c4)c3c2)o1 [lapatinib] + COc1ccc(Cl)c(Nc2nc3ccccc3nc2NS(=O)(=O)c2cccc(NC(=O)C(C)(C)N)c2)c1 [XL147] (first compound 0.8 µM, partner dose 0.8 µM)	123	128	110	224	78.9	72.3	68.7	239	116	1700	111	36.7	84.6	45.9
C[C@@H](Oc1cc(-c2cnn(C3CCNCC3)c2)cnc1N)c1c(Cl)ccc(F)c1Cl [Crizotinib] + C=C(c1ccc(C(=O)O)cc1)c1cc2c(cc1C)C(C)(C)CCC2(C)C [Bexarotene] (first compound 0.2 µM, partner dose 2 µM)	182	119	45.1	62	97	110	82.5	432	139	172	97.1	98.9	70	209
CN1CCN(c2ccc3nc(-c4c(N)c5c(F)cccc5[nH]c4=O)[nH]c3c2)CC1 [Dovitinib] + CS(=O)(=O)CCNCc1ccc(-c2ccc3ncnc(Nc4ccc(OCc5cccc(F)c5)c(Cl)c4)c3c2)o1 [lapatinib] (first compound 0.1 µM, partner dose 0.8 µM)	74.9	126	96.3	211	104	58.5	103	168	121	93.6	108	39.6	94.3	87.2
CC(C)C[C@H](NC(=O)[C@H](Cc1ccccc1)NC(=O)c1cnccn1)B(O)O [Bortezomib] + COc1ccc(Cl)c(Nc2nc3ccccc3nc2NS(=O)(=O)c2cccc(NC(=O)C(C)(C)N)c2)c1 [XL147] (first compound 0.001 µM, partner dose 0.8 µM)	144	66.9	134	206	90.6	116	29.2	180	37	98.9	144	89.4	375	208
O=C(O)[C@@H]1[O][Sb](=[O])([O][Sb]2(=[O])[O][C@H]([C@H](O)CO)[C@H](O)[C@H](C(=O)O)[O]2)[O][C@H]([C@H](O)CO)[C@@H]1O (stereo partly specified) [stibogluconate] + CS(=O)(=O)CCNCc1ccc(-c2ccc3ncnc(Nc4ccc(OCc5cccc(F)c5)c(Cl)c4)c3c2)o1 [lapatinib] (first compound 2 µM, partner dose 0.8 µM)	79.8	102	32.2	192	111	41.2	56.8	53.2	88.3	54.6	84.1	35.1	91.9	44.9
Cc1cc(Nc2cc(N3CCN(C)CC3)nc(/C=C/c3ccccc3)n2)n[nH]1 + Nc1nc(F)nc2c1ncn2[C@@H]1O[C@H](CO)[C@@H](O)[C@@H]1O [fludarabine] (first compound 0.04 µM, partner dose 0.2 µM)	36.3	1250	84.3	107	88.9	300	692	171	183	66.6	111	1090	90	146
CNC(=O)c1cc(Oc2ccc(NC(=O)Nc3ccc(Cl)c(C(F)(F)F)c3)cc2)ccn1 [sorafenib] + CS(=O)(=O)CCNCc1ccc(-c2ccc3ncnc(Nc4ccc(OCc5cccc(F)c5)c(Cl)c4)c3c2)o1 [lapatinib] (first compound 0.4 µM, partner dose 0.8 µM)	69.7	59	139	43.9	79.6	68.9	49.5	132	81.7	28	89.7	188	98.9	88.3
Nc1ccn([C@@H]2O[C@H](CO)[C@@H](O)C2(F)F)c(=O)n1 [gemcitabine] + CCCS(=O)(=O)Nc1ccc(F)c(C(=O)c2c[nH]c3ncc(Cl)cc23)c1F [PLX4720] (first compound 0.0004 µM, partner dose 0.08 µM)	139	79.9	73	130	90.6	77.5	76.9	224	117	60	107	203	229	191
C[C@@H](Oc1cc(-c2cnn(C3CCNCC3)c2)cnc1N)c1c(Cl)ccc(F)c1Cl [Crizotinib] + Cn1c(Nc2ccc(C(F)(F)F)cc2)nc2cc(Oc3ccnc(-c4ncc(C(F)(F)F)[nH]4)c3)ccc21 [CHIR265] (first compound 0.2 µM, partner dose 0.08 µM)	104	153	47.5	133	106	375	48.2	280	334	80.7	119	27.5	107	20.6
CC(C)C[C@H](NC(=O)[C@H](Cc1ccccc1)NC(=O)c1cnccn1)B(O)O [Bortezomib] + O=C(O)c1ccc2c(c1)nc(Nc1cccc(Cl)c1)c1ccncc12 [CX4945] (first compound 0.001 µM, partner dose 0.4 µM)	254	327	212	239	40.6	30.4	126	279	213	474	143	46.7	691	213
Cn1c(=O)n(-c2ccc(C(C)(C)C#N)cc2)c2c3cc(-c4cnc5ccccc5c4)ccc3ncc21 + C=CCNC1=C2C[C@@H](C)C[C@H](OC)[C@H](O)[C@@H](C)/C=C(\C)[C@H](OC(N)=O)[C@@H](OC)/C=C\C=C(/C)C(=O)NC(=CC1=O)C2=O [Tanespimycin] (first compound 0.004 µM, partner dose 0.002 µM)	115	30.6	105	324	333	59.9	92.4	68.4	143	73.8	105	94.3	114	38.8
O=C(O)c1ccc2c(c1)nc(Nc1cccc(Cl)c1)c1ccncc12 + COCC[n+]1c2c(n(Cc3cnccn3)c1C)C(=O)c1ccccc1C2=O [YM155] (first compound 0.4 µM, partner dose 0.0004 µM)	135	93.7	93.9	38.3	87.7	141	193	139	198	141	80.7	117	89.1	125
Cc1cc(Nc2cc(N3CCN(C)CC3)nc(/C=C/c3ccccc3)n2)n[nH]1 + NC1(c2ccc(-c3nc4ccn5c(=O)[nH]nc5c4cc3-c3ccccc3)cc2)CCC1 [MK2206] (first compound 0.04 µM, partner dose 0.4 µM)	74.7	57.1	164	145	154	55.5	58.3	158	139	46.9	120	28.5	105	149
Cn1c(=O)n(-c2ccc(C(C)(C)C#N)cc2)c2c3cc(-c4cnc5ccccc5c4)ccc3ncc21 + Nc1cccc2c1CN(C1CCC(=O)NC1=O)C2=O [lenalidomide] (first compound 0.004 µM, partner dose 1 µM)	78.3	66	93.9	65.8	84.5	98.7	60.1	190	209	170	199	102	102	83.1
CNC(=O)c1cc(Oc2ccc(NC(=O)Nc3ccc(Cl)c(C(F)(F)F)c3)cc2)ccn1 [sorafenib] + CC(=O)c1c(C)c2cnc(Nc3ccc(N4CCNCC4)cn3)nc2n(C2CCCC2)c1=O [palbociclib] (first compound 0.4 µM, partner dose 0.04 µM)	149	117	100	125	83.4	149	103	76.9	93.3	45.5	99.4	224	105	48.9
C=C(c1ccc(C(=O)O)cc1)c1cc2c(cc1C)C(C)(C)CCC2(C)C [Bexarotene] + CCCS(=O)(=O)Nc1ccc(F)c(C(=O)c2c[nH]c3ncc(Cl)cc23)c1F [PLX4720] (first compound 2 µM, partner dose 0.08 µM)	146	193	138	119	131	233	56.6	340	53.1	106	97.9	105	113	81.2
Nc1nc(F)nc2c1ncn2[C@@H]1O[C@H](CO)[C@@H](O)[C@@H]1O [fludarabine] + Nc1ncn([C@H]2C[C@H](O)[C@@H](CO)O2)c(=O)n1 [decitabine] (first compound 0.2 µM, partner dose 0.1 µM)	70.9	1390	147	125	263	701	1490	250	256	84.4	90.3	276	99.8	762

Rewritten comma-delimited: part of the list above
SMILES,cleaved PARP positive nuclei fraction (MZ2-MEL) [%],cleaved PARP positive nuclei fraction (MeWo) [%],cleaved PARP positive nuclei fraction (RPMI7951) [%],cleaved PARP positive nuclei fraction (RVH-421) [%],cleaved PARP positive nuclei fraction (SkMel28) [%],cleaved PARP positive nuclei fraction (SkMel2) [%],cleaved PARP positive nuclei fraction (SkMel30) [%],cleaved PARP positive nuclei fraction (UACC62) [%],cleaved PARP positive nuclei fraction (WM115) [%],cleaved PARP positive nuclei fraction (WM1716) [%],cleaved PARP positive nuclei fraction (WM1745) [%],cleaved PARP positive nuclei fraction (WM3526) [%],cleaved PARP positive nuclei fraction (WM3619) [%],cleaved PARP positive nuclei fraction (WM451Lu) [%]
"Nc1ncn([C@H]2C[C@H](O)[C@@H](CO)O2)c(=O)n1 [decitabine] + C=CCNC1=C2C[C@@H](C)C[C@H](OC)[C@H](O)[C@@H](C)/C=C(\C)[C@H](OC(N)=O)[C@@H](OC)/C=C\C=C(/C)C(=O)NC(=CC1=O)C2=O [Tanespimycin] (first compound 0.1 µM, partner dose 0.002 µM)",154,577,121,182,89.2,69.5,106,88.4,27.4,937,104,48.5,88.5,322
"C=C(c1ccc(C(=O)O)cc1)c1cc2c(cc1C)C(C)(C)CCC2(C)C [Bexarotene] + COCC[n+]1c2c(n(Cc3cnccn3)c1C)C(=O)c1ccccc1C2=O [YM155] (first compound 2 µM, partner dose 0.0004 µM)",220,51.3,188,177,287,108,114,52.7,38.9,123,278,188,83.8,45.6
